Measured values: patent US20060134131A1, “Cosmetic or pharmaceutical composition comprising a genus halopteris brown alga extract” (priority 2002, published 2006)
For at least one compound, name, drawing or mass did not settle the structure.

System: pre-adipocytes 3T3-L1
Assay: Differentiation of 3T3-L1 pre-adipocytes into adipocytes, lipid content by Oil Red colouring
Assay type: cell-based
Conditions: 10 μM, induced 3T3-L1 cells
Experimental: The study on the effect of this extract on a line of pre-adipocytes ET3-L1 induced as adipocytes is carried out according to a protocol which is known and which is in particular described in the document which appeared in Annu. Rev. Biochem., 1995, 64: 345-373, entitled “Transcriptional regulation of gene expression during adipocyte differentiation”, the authors of which were MacDougald O A and Lane M D.
This protocol is set out briefly below. The pre-adipocyte cells of the line e=3T3-L1 were kept in culture in a Dulbelcco modified Eagle medium (DMEM) containing 2 mM of glutamine, 4.5 g/l of glucose, 0.11 g/l of sodium pyruvate, 10% of calf serum (SVD) and antibiotics (50 U penicillin and 50 μg of streptomycin per ml of medium). Their differentiation as adipocytes was brought about in the following manner: firstly, the pre-adipocyte cells were cultivated with confluence for two days. At the time which will be referred to below as D0, the culture medium was replaced by a differentiation inducing medium (DIM) composed of DMEM containing 10% foetal calf serum (FCS) with the addition of 0.25 mM of isobutyl methyl xanthine (IBMX), 0.25 μM of dexamethasone and 1.74 μM of insulin. […]
After seven days of culture, the lipid content of the pre-adipocyte cells was assessed by colouring with Oil Red. […] The optical density (OD) of the medium was measured at 540 nm. […]

CC1=C(/C=C/C(C)=C/C=C/C(C)=C/C(=O)O)C(C)(C)CCC1 [Retinoic Acid, retinoic acid]
appearance of lipid droplets: very greatly limits the appearance of lipid droplets
